Earlier results as cited in patent US9844519B1, “Method of treating TDP-43 proteinopathies using hexachlorophene” (University of South Florida, priority 2014, dated 2017).
For at least one compound, name, drawing or mass did not settle the structure.

Tested on: rats
Settings: pre-treatment prior to administration of B10; cited from earlier work

CCC1(c2ccccc2)C(=O)NC(=O)NC1=O [phenobarbital]
protection from toxicity induced by B10: lessened toxicity
